Results are given in words; binding and its absence hold for the method and conditions named. Some binding calls cover weakened binding; strength is not graded here.
Molecular target: Tla1 (PA3293), type VI lipase adapter protein, bacterial two-hybrid fusion (Pseudomonas aeruginosa (PAO1)) (UniProt Q9HYV0)
Test: two-hybrid; bacterial adenylate cyclase two-hybrid (BACTH): proteins or domains fused to the T18 or T25 domain of B. pertussis adenylate cyclase, coproduced in E. coli BTH101, spotted on X-gal indicator plates; blue colony reflects interaction; triplicate

Amino acid sequences for entries named in this document (tags omitted).
UniProt Q9HYV0: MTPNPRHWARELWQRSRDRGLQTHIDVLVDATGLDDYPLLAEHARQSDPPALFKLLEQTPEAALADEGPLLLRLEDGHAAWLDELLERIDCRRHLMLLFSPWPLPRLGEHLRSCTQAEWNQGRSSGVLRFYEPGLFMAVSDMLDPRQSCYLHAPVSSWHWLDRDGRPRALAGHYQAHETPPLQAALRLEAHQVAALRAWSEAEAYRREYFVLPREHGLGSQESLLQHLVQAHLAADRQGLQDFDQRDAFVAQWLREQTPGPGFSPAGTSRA

“Tla1 (PA3293), type VI lipase adapter protein, bacterial two-hybrid fusion (from UniProt Q9HYV0 1-271)” was tested, and the binding was “binds”.

Reference: article PMC13133936
